Measurements reported in PubChem BioAssay AID1259308 (NCATS, 2017).
The deposit covers about 59,000 reagents; shown is a random part of them. About 1,510 of them (2.6%) were called active. 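Calls use total luciferase alone and ignore viability, so some active siRNAs may act by altering cell number.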 Entries without a mark were called inactive. Reagents against one gene are numbered here. Not all columns of the deposit are shown.

Aim: 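Candidate targets for better recombinant protein yield in mammalian cells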 (primary screen)
Cell system: human HEK293 embryonic kidney cells stably expressing firefly luciferase (HEK-CMV-Luc2-Hygro)
Reagents: single siRNA against human genes, 0.8 pmol siRNA per well
Timing: 72 h
Read-out: 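Reporter luminescence and viable-cell signal on separate replicate plates, given as percent of non-targeting control and median/MAD z-scores, plus per-cell luciferase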
Direction: total luciferase, z-score and total luciferase, % of control: higher = more reporter protein produced
Rule for the call: 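Active when the median/MAD z-score for overall luciferase is greater than 3; a gene was taken forward for validation with new siRNAs if at least two of its three siRNAs passed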
Calls: active = raised luciferase; inactive = no rise

gene symbol,reagent,"total luciferase, z-score","total luciferase, % of control"
PGRMC2,1,1.29,108
PGRMC2,2,0.983,101
PGRMC2,3,0.162,85.1
TSHZ2,1,0.191,85.7
TSHZ2,2,-0.194,78
TSHZ2,3,-0.127,79.4
MILR1,1,-0.55,70.9
MILR1,2,0.478,91.4
MILR1,3,0.897,99.7
CNRIP1,1,0.571,93.2
CNRIP1,2,0.367,89.2
CNRIP1,3,0.825,98.3
DFFB,1,0.0371,82.6
DFFB,2,1.77,117
DFFB,3,-0.861,64.8
LINC00886,1,0.366,89.2
LINC00886,2,-0.71,67.8
LINC00886,3,-1.26,56.9
MAP1LC3C,1,-0.212,77.7
MAP1LC3C,2,-0.439,73.2
MAP1LC3C,3,-0.627,69.4
H4C1,1,0.0602,83.1
H4C1,2,-0.14,79.1
H4C1,3,0.208,86
CIDEA,1,0.25,86.9
CIDEA,2,0.549,92.8
CIDEA,3,1.67,115
VASP,1,0.583,93.5
VASP,2,-1.95,43.1
VASP,3,1.14,104
KDELR3,1,1.5,112
KDELR3,2,-0.802,65.9
KDELR3,3,-0.376,74.4
LILRB4,1,-0.369,74.5
LILRB4,2,-0.36,74.7
LILRB4,3,1.29,108
LOC728158,1,1.83,118
LOC728158,2,-1.39,54.3
LOC728158,3,-1.87,44.7

2 of these entries, reformatted.
gene symbol	reagent	total luciferase, z-score	total luciferase, % of control
KDELR3	2	-0.802	65.9
KDELR3	3	-0.376	74.4
